## Small-molecule microarray binding calls

Targets (5′ to 3′):
SAM-II: SAM-II riboswitch RNA pseudoknot, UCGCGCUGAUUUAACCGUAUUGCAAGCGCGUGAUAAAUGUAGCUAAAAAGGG. About 21,000 compounds screened, about 200 hits.
TPP: TPP riboswitch RNA three-way junction, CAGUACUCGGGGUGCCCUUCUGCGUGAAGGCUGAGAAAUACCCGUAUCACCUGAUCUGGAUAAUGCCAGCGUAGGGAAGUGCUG. About 24,000 compounds screened, about 160 hits.
PreQ1: PreQ1 riboswitch RNA pseudoknot, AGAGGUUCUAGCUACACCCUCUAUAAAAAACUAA. From B. subtilis. About 24,000 compounds screened, about 170 hits.

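Each compound is printed as two spots on a slide made to bind it covalently, so it has no test concentration; the read-out is fluorescence of the bound, labelled oligonucleotide. The data file lists only calls. An earlier report of the laboratory on the PreQ1, TPP and SAM-II riboswitches (doi:10.1038/s41467-019-09493-3) used 1 µM RNA for 2 h and required a mean Z-score above 3 (spot signal-to-noise against the whole library), a score well above that on a control array, and duplicate spots agreeing (coefficient of variation under 100); it then also set aside compounds that hit other targets, which this list keeps. The cut-offs behind this list may differ. A missing hit is not proof of no binding, and a hit is not a measured affinity.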
A compound is marked Y if it was called a hit and N if it was screened but was not.
The compounds are a random part of those screened.
A target missing from an entry has no call listed here.
A dash means that no call is listed here.

SMILES,SAM-II,TPP,PreQ1
O=C(Cc1c[nH]c(=O)[nH]c1=O)N1CCCC(Nc2ccc3c(c2)OCO3)C1 (configuration not stated),N,N,N
Cc1ccncc1-n1cc(CCO)cn1,N,N,N
Fc1ccc(-c2ccc(CNCCN3CCOCC3)o2)cc1Cl,-,N,N
COc1ccc(CNc2nc(N)ncc2C)c(F)c1F,N,N,N
COc1ccc(-c2cc(=O)c3c(O)cc(O)cc3o2)cc1O,N,N,N
CN(C)CCCNc1oc(-c2ccc(Cl)cc2)nc1C#N,N,N,N
NC(=O)Cc1nc(-c2ccc3c(c2)NC(=O)CN3)n(-c2cccc(F)c2)n1,N,N,N
N#CC1=C(N)Oc2ncnc(O)c2C1c1ccc(F)cc1 (configuration not stated),N,N,N
CCCc1nc(C(=O)N2CCN(Cc3ccoc3)C(CCO)C2)cs1 (configuration not stated),N,N,N
Cc1ccc2oc(CN3CC[C@@H]4[C@@H](CCC(=O)N4CCN)C3)c(C)c2c1,N,N,N
Cc1ccccc1Nc1nc(-c2cccnc2)nc2ccccc12,N,N,N
C#CC1(O)CCC2C3CCC4=CC(=O)CCC4(C)C3CCC21C (configuration not stated),N,N,N
Clc1ccccc1/C=C/c1ccnc2ccccc12,N,N,N
O=C(/C=C/c1cccnc1)c1ccccc1O,N,N,N
CC(=O)c1ccc(NC(=O)N(CCCCO)Cc2ccccc2)cc1,N,N,N
Cn1c(=O)c2c(-c3ccccc3)n(C(CO)(CO)CO)cc2n(C)c1=O,N,N,N
Cc1ccc(-c2nn3c(NCC(C)C)cc(C)nc3c2C)cc1,-,N,N
COc1cccc(C2c3c(-c4cc(C)ccc4O)n[nH]c3C(=O)N2CCCO)c1 (configuration not stated),-,N,N
COC(=O)[C@@H](NCc1nc(-c2ccccc2C)no1)c1ccccc1,N,N,N
COc1ccc(Cn2nccc2N)cc1OC,N,N,N
Cc1nn(-c2ccccc2)nc1C(=O)Nc1ccc2[nH]ncc2c1,N,N,N
Cc1[nH]c2c(F)cc(F)cc2c1CCNC(=O)C1NCCc2[nH]cnc21 (configuration not stated),N,N,N
COc1cc(OC)cc(N2CC(=O)C(c3nc(C)c(C)s3)=C2N)c1,-,N,N
Cc1ccccc1CCN1CCC(CN(C(=O)[C@@H]2CCCN2)C2CCCC2)CC1,N,N,N
CCCc1nc(-c2cc3cc(C)ccc3nc2NCc2cccnc2)no1,-,N,N
CN(Cc1ncc[nH]1)c1nc(N)nc2c1CCN(c1ncccn1)CC2,N,N,N
Cc1ccc(C(=O)c2c(N)c(C(=O)Nc3ccccc3Cl)c3ccccn23)cc1,-,N,N
Cc1ccccc1C(=O)c1ccc(Nc2ccc(Br)cc2N)cc1Cl,Y,N,N
CN(C)CCNc1ncnc2c1c(-c1ccccc1)cn2-c1ccc(Cl)cc1,-,N,N
C[C@H]1[C@H](O)O[C@@H]2O[C@@]3(C)CC[C@@H]4[C@H](C)CC[C@@H]1[C@@]24OO3,N,N,N
CCOC(=O)C1=C[C@]2(CC)CCCN3CCc4c(n1c1ccccc41)[C@@H]32,N,N,N
COc1cccc2c1NC(CCc1ccccc1N)CC2 (configuration not stated),N,N,N
CN1c2ccccc2C2=C(C(c3cc(Br)ccc3F)C(C#N)=C(N)O2)S1(=O)=O (configuration not stated),-,N,N
Cc1n[nH]c(C)c1CNc1nc(-c2ccccc2)nc2c1CCNC2,N,N,N
Cc1ccc(CNc2c(C)c(C)nc3nncn23)cc1,-,N,N
Cc1cc(N)n(CC(=O)N2CCC(CCC(=O)NCc3cccnc3)CC2)n1,N,N,N
Cc1ccc(CNc2ncc(-c3ccccc3)n2C)cc1,N,N,N
N#Cc1ccc(NC2c3ccccc3CC2O)cc1 (configuration not stated),N,N,N
CCCCCc1cccnc1,N,N,N
Cc1cc(C(F)(F)F)nc(N2CCN(C(=O)c3ccc(CO)o3)CC2)n1,N,N,N
O=C(c1ccc(CNc2c(N3CCCC3)c(=O)c2=O)cc1)N1CCN(c2ccccc2F)CC1,-,N,N
CC(C)CCNc1nc2c(c(=O)[nH]c(=O)n2C)n1CC(O)COC(C)C (configuration not stated),N,N,N
c1ccc2[nH]c(CCCNCc3ccsc3)nc2c1,N,N,N
CNC(=O)[C@@H]1C[C@H](N)CN1S(=O)(=O)c1sccc1C,N,N,N
CC(C)C(=O)Nc1cccnc1,N,N,N
N#Cc1nc(-c2ccc(COc3ccc4ccccc4c3)o2)oc1NCc1ccco1,-,N,N
Cc1nc2nc(-c3ccccc3)nn2c(Sc2ccccc2N)c1C,N,N,N
Nc1ccn(C2CO[C@H](CO)O2)c(=O)n1 (some centres not stated),N,N,N
O=C(O)C1=CC(=NNc2ccc(S(=O)(=O)Nc3ccccn3)cc2)C=CC1=O,N,N,N
CCOC(=O)N1CCC(Nc2c(N3CCN(c4ccccc4)CC3)c(=O)c2=O)CC1,-,N,N
CNCCN1C(=O)CC[C@H]2CN(Cc3cnn(C)c3)CC[C@H]21,N,N,N
CCCCCn1c(CN2CCN(CCO)CC2)nc2c1c(=O)n(C)c(=O)n2C,N,N,N
OCc1ccc(-c2ccc(-c3ccc(CO)s3)o2)s1,N,N,N

Once more, the final 5:

* O=C(O)C1=CC(=NNc2ccc(S(=O)(=O)Nc3ccccn3)cc2)C=CC1=O : SAM-II: N; TPP: N; PreQ1: N
* CCOC(=O)N1CCC(Nc2c(N3CCN(c4ccccc4)CC3)c(=O)c2=O)CC1 : TPP: N; PreQ1: N
* CNCCN1C(=O)CC[C@H]2CN(Cc3cnn(C)c3)CC[C@H]21 : SAM-II: N; TPP: N; PreQ1: N
* CCCCCn1c(CN2CCN(CCO)CC2)nc2c1c(=O)n(C)c(=O)n2C : SAM-II: N; TPP: N; PreQ1: N
* OCc1ccc(-c2ccc(-c3ccc(CO)s3)o2)s1 : SAM-II: N; TPP: N; PreQ1: N

Calls as published in the ROBIN set (doi:10.1002/anie.202211358).